# Data: US5112810A, “Method for treating multiple sclerosis” (Mitsui Pharmaceuticals, Inc., priority 1981, dated 1992)
# Several values for one entry are separate records, joined by “and”; a condition that tells them apart may be missing. Equal entries are not always repeated. At least one peptide structure holds a part that was inferred or is arguable (an end, a ring closure or a residue). Where a SMILES comes first, the peptide text is derived from it. [ ]: non-standard residue; d: D form. pGlu = O=C1CC[C@@H](C(=O)O)N1
# Legend:
# EAE guinea pigs = test: Histopathological findings (brain, spinal cord) in EAE guinea pigs; format: in vivo, guinea pig
# EAE monkeys = test: Effect of FTS on EAE monkeys (Experiment 4); format: in vivo, crab eating monkeys (Macaca irus); conditions: FTS injection 1 to 6 mg/day per monkey, given after manifestation of EAE symptoms
# EAN Lewis rats = test: Experimental allergic neuritis (EAN) Lewis rats (Experiment 5); format: in vivo, rat
# [1] = Group IV: FTS 50 μg/day, animals 1, 4
structure (smiles),measurement,setting,value
"C[C@H](NC(=O)[C@@H]1CCC(=O)N1)C(=O)N[C@@H](CCCCN)C(=O)N[C@@H](CO)C(=O)N[C@@H](CCC(N)=O)C(=O)NCC(=O)NCC(=O)N[C@@H](CO)C(=O)N[C@@H](CC(N)=O)C(=O)O [FTS, p-Glu-Ala-Lys-Ser-Gln-Gly-Gly-Ser-Asn-Oh] ([pGlu]AKSQGGSN-OH)",Average days for the first EAE sign after immunization (individual animal),"EAE guinea pigs; Group II: FTS 10 μg/day, animals 1, 2, 3 examined histopathologically",21 days and no anomaly and 17 days
same,"Histopathological findings, brainstem",EAE guinea pigs; [1],++~+++
same,"Histopathological findings, cerebrum",EAE guinea pigs; [1],++~+++
same,Average days for the first EAE sign after immunization (individual animal),"EAE guinea pigs; Group IV: FTS 50 μg/day, animals 1, 4 examined histopathologically",no anomaly
same,"Histopathological findings, cerebrum","EAE guinea pigs; Group V: FTS 50 μg/day, animals 3, 4, 5",+~++
same,Average days for the first EAE sign after immunization (individual animal),"EAE guinea pigs; Group V: FTS 50 μg/day, animals 3, 4, 5 examined histopathologically",no anomaly
same,"Histopathological findings, cerebrum","EAE guinea pigs; Group VI: FTS 50 μg/day, animals 3, 4, 5",++~+++
same,Average days for the first EAE sign after immunization (individual animal),"EAE guinea pigs; Group VI: FTS 50 μg/day, animals 3, 4, 5 examined histopathologically",no anomaly
same,Prolongation of life of EAE monkeys,EAE monkeys,significantly prolonged the life of each EAE animal
same,FTS-treated animals presenting no clinical signs through the 35 days of the experiment,EAN Lewis rats; FTS 50 μg/animal s.c. daily Day 6 to 35,three out of eight
same,Average days for the first clinical sign for animals after inoculation per group,"EAN Lewis rats; Group II: FTS 50 μg/animal s.c. daily Day 6 to 35, five animals with signs, p < 0.001 vs group I",17.8 days and 17.8 ± 0.4 days
same,Interval between day of the first clinical sign and recovery,"EAN Lewis rats; Group II: FTS 50 μg/animal s.c. daily Day 6 to 35, individual animals, experiment closed on Day 35",1 days and 4 days and 9 days and 5 days
same,Average interval for animals per group (first clinical sign to recovery),"EAN Lewis rats; Group II: FTS 50 μg/animal s.c. daily Day 6 to 35, p < 0.001 vs group I",4.6 days and 4.6 ± 2.9 days
same,The day of the first clinical sign for each animal,"EAN Lewis rats; Group II: FTS 50 μg/animal s.c. once a day, Day 6 to 35, 8 rats",No clinical and 18 day and 17 day
